No constants are given. Whether binding was seen depends on the method and setting. Some entries that bind do so weakly or less than the wild type. Where a sequence is shown, tags or fusion partners need not be part of it.

By UniProt entry, the sequences of proteins in these tests, tags left out.
UniProt O60610: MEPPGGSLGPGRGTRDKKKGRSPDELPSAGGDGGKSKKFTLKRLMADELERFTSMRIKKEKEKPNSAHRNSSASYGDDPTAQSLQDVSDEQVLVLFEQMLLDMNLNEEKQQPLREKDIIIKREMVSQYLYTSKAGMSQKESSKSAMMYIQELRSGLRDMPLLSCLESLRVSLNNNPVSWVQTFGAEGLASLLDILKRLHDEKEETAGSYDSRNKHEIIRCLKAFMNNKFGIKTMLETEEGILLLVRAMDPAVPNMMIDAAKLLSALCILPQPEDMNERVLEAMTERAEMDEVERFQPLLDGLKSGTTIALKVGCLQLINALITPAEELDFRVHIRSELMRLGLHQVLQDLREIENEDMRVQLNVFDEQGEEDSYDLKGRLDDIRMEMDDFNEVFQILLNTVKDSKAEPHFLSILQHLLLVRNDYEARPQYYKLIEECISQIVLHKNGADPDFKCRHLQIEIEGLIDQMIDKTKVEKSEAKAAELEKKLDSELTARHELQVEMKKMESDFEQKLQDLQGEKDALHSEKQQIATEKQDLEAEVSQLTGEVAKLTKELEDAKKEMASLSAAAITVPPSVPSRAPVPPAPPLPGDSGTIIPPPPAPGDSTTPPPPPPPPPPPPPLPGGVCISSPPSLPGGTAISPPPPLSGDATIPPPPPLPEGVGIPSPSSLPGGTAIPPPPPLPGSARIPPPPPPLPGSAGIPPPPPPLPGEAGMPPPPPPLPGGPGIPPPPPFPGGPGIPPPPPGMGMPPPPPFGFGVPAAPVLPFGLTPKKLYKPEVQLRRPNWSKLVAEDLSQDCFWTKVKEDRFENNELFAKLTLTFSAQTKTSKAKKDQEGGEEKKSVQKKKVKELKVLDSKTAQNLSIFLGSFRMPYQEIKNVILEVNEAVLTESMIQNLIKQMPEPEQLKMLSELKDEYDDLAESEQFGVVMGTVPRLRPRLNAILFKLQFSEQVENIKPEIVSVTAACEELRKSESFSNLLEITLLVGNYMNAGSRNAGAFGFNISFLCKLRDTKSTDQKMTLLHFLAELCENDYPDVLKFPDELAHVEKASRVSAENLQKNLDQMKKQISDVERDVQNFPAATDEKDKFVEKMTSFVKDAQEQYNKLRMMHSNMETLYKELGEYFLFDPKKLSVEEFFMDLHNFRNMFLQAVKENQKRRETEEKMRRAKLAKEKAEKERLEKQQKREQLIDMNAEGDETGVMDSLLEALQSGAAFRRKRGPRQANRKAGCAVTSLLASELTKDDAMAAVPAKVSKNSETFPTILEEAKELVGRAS

This experiment deals with mammalian diaphanous 1 (DIAPH1) (human (endogenous in HeLa)) (UniProt O60610). Nature of the experiment: ELISA; 384-well plates coated with anti-DIAPH1 antibody (62.5 ng/well), blocked with 3% BSA; DIAPH1 captured from HeLa cell lysate (10 ug/well, 3 h, room temperature), washed with PBS; GFP-ctRAGE (64.5 uM) added with test small molecules (10 uM; then four-point dose response 10, 1, 0.1, 0.01 uM) for 2 h at room temperature; read in an EnVision Multilabel Reader; only the binder purified.

For the molecule LWQRRQRRGEERKAPENQEEEEERAELNQSEEPEAGESSTGGP (domain or fragment) [GFP-labeled cytoplasmic domain of human RAGE (GFP-ctRAGE)], the binding result was “binds”.

For the origin of these results see publication PMC4776135, “Small Molecule Inhibition of Ligand-Stimulated RAGE-DIAPH1 Signal Transduction” (Scientific Reports, 2016).
